PubChem BioAssay AID1508597, Cure First – 2020
Assay: 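Knock-downs altering ovarian cancer cell survival with or without PARP inhibitor rucaparib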 (primary screen). Cell system: human ovarian carcinoma lines grown from tumours: OCI-P5x (papillary serous) and OCI-C5x (clear cell). Reagent: siRNA pool against human genes, 1.25 pmol siRNA per well. Timing: 72 h or 96 h, depending on the cell culture. Treatment: rucaparib 20 µM (about IC30) or vehicle, present until read-out. Read-out: 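ATP luminescence measured at 72 or 96 h according to the culture, then normalised and expressed as percent viability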. Scale: viability, normalised: higher = more viable cells remaining. Active means: 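a well counts as a hit if its normalised viability is under 80 percent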. Calls: active = viability under 80%; inactive = viability 80% or more.
The whole screen tested about 2,100 reagents; below is an unselected part. 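Calls flag viability under 80% in either arm, not effects specific to rucaparib; the reference for percent is not stated.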 Entries without a mark were called inactive. A reagent listed more than once was tested more than once; the source does not tell the runs apart. Not given: the 100% reference.

SSBP1 (GeneID 6742), rucaparib or vehicle Rucaparib, cell line OCI-C5x (clear cell), technical replicate 1 gave viability, normalised (%) = 70.1 (active).
SSBP1 (GeneID 6742), rucaparib or vehicle Rucaparib, cell line OCI-C5x (clear cell), technical replicate 2 showed viability, normalised (%) = 61 (active).
SSBP1 (GeneID 6742), rucaparib or vehicle Rucaparib, cell line OCI-C5x (clear cell), technical replicate 3 scored viability, normalised (%) = 80.4.
SSBP1 (GeneID 6742), rucaparib or vehicle Rucaparib, cell line OCI-P5x (serous), technical replicate 1 scored viability, normalised (%) = 124.
For SSBP1 (GeneID 6742), rucaparib or vehicle Rucaparib, cell line OCI-P5x (serous), technical replicate 2, the values are viability, normalised (%) = 76.7 (active).
SSBP1 (GeneID 6742), rucaparib or vehicle Rucaparib, cell line OCI-P5x (serous), technical replicate 3 gave viability, normalised (%) = 75.9 (active).
SSBP1 (GeneID 6742), rucaparib or vehicle Vehicle, cell line OCI-C5x (clear cell), technical replicate 1 scored viability, normalised (%) = 88.7.
For SSBP1 (GeneID 6742), rucaparib or vehicle Vehicle, cell line OCI-C5x (clear cell), technical replicate 2, the values are viability, normalised (%) = 88.
SSBP1 (GeneID 6742), rucaparib or vehicle Vehicle, cell line OCI-C5x (clear cell), technical replicate 3 showed viability, normalised (%) = 83.9.
With SSBP1 (GeneID 6742), rucaparib or vehicle Vehicle, cell line OCI-P5x (serous), technical replicate 1, the entry reads viability, normalised (%) = 107.
With SSBP1 (GeneID 6742), rucaparib or vehicle Vehicle, cell line OCI-P5x (serous), technical replicate 2, the entry reads viability, normalised (%) = 88.2.
SSBP1 (GeneID 6742), rucaparib or vehicle Vehicle, cell line OCI-P5x (serous), technical replicate 3 showed viability, normalised (%) = 98.1.
PKN2 (GeneID 5586), rucaparib or vehicle Rucaparib, cell line OCI-C5x (clear cell), technical replicate 1 gave viability, normalised (%) = 51.2 (active).
PKN2 (GeneID 5586), rucaparib or vehicle Rucaparib, cell line OCI-C5x (clear cell), technical replicate 2 scored viability, normalised (%) = 63 (active).
For PKN2 (GeneID 5586), rucaparib or vehicle Rucaparib, cell line OCI-C5x (clear cell), technical replicate 3 the deposit lists viability, normalised (%) = 56 (active).
With PKN2 (GeneID 5586), rucaparib or vehicle Rucaparib, cell line OCI-P5x (serous), technical replicate 1 the deposit lists viability, normalised (%) = 49 (active).
PKN2 (GeneID 5586), rucaparib or vehicle Rucaparib, cell line OCI-P5x (serous), technical replicate 2 scored viability, normalised (%) = 72.9 (active).
For PKN2 (GeneID 5586), rucaparib or vehicle Rucaparib, cell line OCI-P5x (serous), technical replicate 3 the deposit lists viability, normalised (%) = 71.1 (active).
For PKN2 (GeneID 5586), rucaparib or vehicle Vehicle, cell line OCI-C5x (clear cell), technical replicate 1, the entry reads viability, normalised (%) = 47.1 (active).
For PKN2 (GeneID 5586), rucaparib or vehicle Vehicle, cell line OCI-C5x (clear cell), technical replicate 2 the deposit lists viability, normalised (%) = 56.3 (active).
PKN2 (GeneID 5586), rucaparib or vehicle Vehicle, cell line OCI-C5x (clear cell), technical replicate 3 showed viability, normalised (%) = 46.7 (active).
For PKN2 (GeneID 5586), rucaparib or vehicle Vehicle, cell line OCI-P5x (serous), technical replicate 1, the values are viability, normalised (%) = 46.1 (active).
PKN2 (GeneID 5586), rucaparib or vehicle Vehicle, cell line OCI-P5x (serous), technical replicate 2 showed viability, normalised (%) = 64.9 (active).
PKN2 (GeneID 5586), rucaparib or vehicle Vehicle, cell line OCI-P5x (serous), technical replicate 3 showed viability, normalised (%) = 61.3 (active).

6 of these entries, set out differently:
PKN2 (GeneID 5586), rucaparib or vehicle Rucaparib, cell line OCI-P5x (serous), technical replicate 1
- viability, normalised (%): 49 (active)

PKN2 (GeneID 5586), rucaparib or vehicle Rucaparib, cell line OCI-P5x (serous), technical replicate 2
- viability, normalised (%): 72.9 (active)

PKN2 (GeneID 5586), rucaparib or vehicle Rucaparib, cell line OCI-P5x (serous), technical replicate 3
- viability, normalised (%): 71.1 (active)

PKN2 (GeneID 5586), rucaparib or vehicle Vehicle, cell line OCI-C5x (clear cell), technical replicate 1
- viability, normalised (%): 47.1 (active)

PKN2 (GeneID 5586), rucaparib or vehicle Vehicle, cell line OCI-C5x (clear cell), technical replicate 2
- viability, normalised (%): 56.3 (active)

PKN2 (GeneID 5586), rucaparib or vehicle Vehicle, cell line OCI-C5x (clear cell), technical replicate 3
- viability, normalised (%): 46.7 (active)

The results go on.
SOX2 (GeneID 6657), rucaparib or vehicle Rucaparib, cell line OCI-C5x (clear cell), technical replicate 1 gave viability, normalised (%) = 53.3 (active).
SOX2 (GeneID 6657), rucaparib or vehicle Rucaparib, cell line OCI-C5x (clear cell), technical replicate 1 showed viability, normalised (%) = 51.6 (active).
With SOX2 (GeneID 6657), rucaparib or vehicle Rucaparib, cell line OCI-C5x (clear cell), technical replicate 2, the entry reads viability, normalised (%) = 49 (active).
SOX2 (GeneID 6657), rucaparib or vehicle Rucaparib, cell line OCI-C5x (clear cell), technical replicate 2 showed viability, normalised (%) = 58.5 (active).
SOX2 (GeneID 6657), rucaparib or vehicle Rucaparib, cell line OCI-C5x (clear cell), technical replicate 3 showed viability, normalised (%) = 41.8 (active).
With SOX2 (GeneID 6657), rucaparib or vehicle Rucaparib, cell line OCI-C5x (clear cell), technical replicate 3, the values are viability, normalised (%) = 46.4 (active).
For SOX2 (GeneID 6657), rucaparib or vehicle Rucaparib, cell line OCI-P5x (serous), technical replicate 1, the entry reads viability, normalised (%) = 51.9 (active).
SOX2 (GeneID 6657), rucaparib or vehicle Rucaparib, cell line OCI-P5x (serous), technical replicate 1 gave viability, normalised (%) = 56.1 (active).
SOX2 (GeneID 6657), rucaparib or vehicle Rucaparib, cell line OCI-P5x (serous), technical replicate 2 scored viability, normalised (%) = 59 (active).
SOX2 (GeneID 6657), rucaparib or vehicle Rucaparib, cell line OCI-P5x (serous), technical replicate 2 gave viability, normalised (%) = 32.2 (active).
SOX2 (GeneID 6657), rucaparib or vehicle Rucaparib, cell line OCI-P5x (serous), technical replicate 3 gave viability, normalised (%) = 58 (active).
With SOX2 (GeneID 6657), rucaparib or vehicle Rucaparib, cell line OCI-P5x (serous), technical replicate 3, the values are viability, normalised (%) = 53.7 (active).
With SOX2 (GeneID 6657), rucaparib or vehicle Vehicle, cell line OCI-C5x (clear cell), technical replicate 1, the entry reads viability, normalised (%) = 35.9 (active).
With SOX2 (GeneID 6657), rucaparib or vehicle Vehicle, cell line OCI-C5x (clear cell), technical replicate 1, the entry reads viability, normalised (%) = 52.4 (active).
For SOX2 (GeneID 6657), rucaparib or vehicle Vehicle, cell line OCI-C5x (clear cell), technical replicate 2 the deposit lists viability, normalised (%) = 38.8 (active).
SOX2 (GeneID 6657), rucaparib or vehicle Vehicle, cell line OCI-C5x (clear cell), technical replicate 2 showed viability, normalised (%) = 43.6 (active).
SOX2 (GeneID 6657), rucaparib or vehicle Vehicle, cell line OCI-C5x (clear cell), technical replicate 3 showed viability, normalised (%) = 50.9 (active).
For SOX2 (GeneID 6657), rucaparib or vehicle Vehicle, cell line OCI-C5x (clear cell), technical replicate 3, the entry reads viability, normalised (%) = 51.5 (active).
For SOX2 (GeneID 6657), rucaparib or vehicle Vehicle, cell line OCI-P5x (serous), technical replicate 1, the values are viability, normalised (%) = 73.8 (active).
SOX2 (GeneID 6657), rucaparib or vehicle Vehicle, cell line OCI-P5x (serous), technical replicate 1 scored viability, normalised (%) = 52.6 (active).
For SOX2 (GeneID 6657), rucaparib or vehicle Vehicle, cell line OCI-P5x (serous), technical replicate 2 the deposit lists viability, normalised (%) = 65 (active).
SOX2 (GeneID 6657), rucaparib or vehicle Vehicle, cell line OCI-P5x (serous), technical replicate 2 scored viability, normalised (%) = 49.1 (active).
For SOX2 (GeneID 6657), rucaparib or vehicle Vehicle, cell line OCI-P5x (serous), technical replicate 3, the entry reads viability, normalised (%) = 56.4 (active).
SOX2 (GeneID 6657), rucaparib or vehicle Vehicle, cell line OCI-P5x (serous), technical replicate 3 scored viability, normalised (%) = 53 (active).
